Some of the results follow.

Sequences of proteins named here, by UniProt entry; tags and fusion partners are left off.
UniProt Q0JBA9, entry or part of it: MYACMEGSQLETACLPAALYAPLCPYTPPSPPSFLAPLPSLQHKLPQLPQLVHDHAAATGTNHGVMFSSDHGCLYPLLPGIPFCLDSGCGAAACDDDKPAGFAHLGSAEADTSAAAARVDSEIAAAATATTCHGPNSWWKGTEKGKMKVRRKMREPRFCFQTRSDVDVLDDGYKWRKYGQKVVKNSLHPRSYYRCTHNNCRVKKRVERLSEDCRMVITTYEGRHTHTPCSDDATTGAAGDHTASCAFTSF

The assay has as its target OsWRKY34 (Oryza sativa, UniProt Q0JBA9 1-250). In words: protein-binding microarray (RPBM); PBS, 2% BSA, 51.3 ng/ul salmon testes DNA, 50 uM zinc acetate, 200 nM TF, 25 C, 1 h; high values mean tight binding. The following applies: protein: recombinant; tags: N-terminal polyhistidine and DsRed monomer fusion (pET32a); label: CyDye5-dUTP incorporated in the synthesized complementary strand; 3' TTTTT single-stranded linker to array surface; dsDNA, one strand shown. Summed up: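 The binding signal is fluorescence intensity per feature, in arbitrary units, read on an Axon 4000B scanner. Polyhistidine- and DsRed-tagged transcription factors (N-terminal fusions) from E. coli BL21-CodonPlus were purified on Ni–NTA and applied at 200 nM for 1 h at 25 °C to a double-stranded, BSA-blocked custom Agilent array in buffer with 50 µM zinc acetate.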
With “TCTCTCTCTCTCTCCAATCTCGAAGAGTTCCAGAAGCTTCCGGAGTCACCTAGTGCAG”, the binding signal is 8560 fluorescence intensity (a.u.). With “AGGTTTCAGATTTGTTTGTCTGTTCCATTCCAAATTTCCACGGAGTCACCTAGTGCAG”, the binding signal is 8100 fluorescence intensity (a.u.).

Turning to “CTCAAAAGACCTTATTGTTCGTACTTCTCATTCTTAATTTCGGAGTCACCTAGTGCAG”, the binding signal is 8100 fluorescence intensity (a.u.). For the sequence “TGGCTGGCGTGTTCGCTTCCGGTGGTATCCACATCGCCCCCGGAGTCACCTAGTGCAG”, the binding signal was 9330 fluorescence intensity (a.u.). For the sequence “GCAATATTGTGCTCTCTGTCCTGGAATCTCTCGGCCATCACGGAGTCACCTAGTGCAG”, the binding signal was 8950 fluorescence intensity (a.u.). For the sequence “ATGATGATATTAAACTACTTGACCGACACAGCGTTCATCCCGGAGTCACCTAGTGCAG”, the binding signal is 9950 fluorescence intensity (a.u.). For the sequence “CATGAGTTCATAACCTCACCTCACGTTTTTATTTAATTTTCGGAGTCACCTAGTGCAG”, the binding signal was 8880 fluorescence intensity (a.u.).

Turning to “TCTATGTTTGTTTTTTATGGGGCGGAGGGAGTAAGGCTAACGGAGTCACCTAGTGCAG”, the binding signal was 13900 fluorescence intensity (a.u.). Consider “ATATGAGTCTGTATTGTTGGATTTGATTTGCTTCTTTAACCGGAGTCACCTAGTGCAG”, for which the binding signal was 8340 fluorescence intensity (a.u.). Take “AATATTTATTTTTATATATGTCCGTTTTGTTTTTTAATCTCGGAGTCACCTAGTGCAG”: the binding signal was 11400 fluorescence intensity (a.u.). As for “CGGTTTCGAGGTTTTTGTTGTAGACGCAGTCCATGGACCGCGGAGTCACCTAGTGCAG”, the binding signal is 8170 fluorescence intensity (a.u.).

Regarding “CTCGATTCTTCTGCAGCTGGGCGGGAGGGGAGGCGTGGCGCGGAGTCACCTAGTGCAG”, the binding signal is 18300 fluorescence intensity (a.u.). As to “CCACCAACCACTAACGATTGCTCTGCACTGTATTTGTATGCGGAGTCACCTAGTGCAG”, the binding signal was 9240 fluorescence intensity (a.u.). As for “TTTTCAGTATTTTTTTTGGAGTTAATTGAGGGGCGGTAATCGGAGTCACCTAGTGCAG”, the binding signal is 12100 fluorescence intensity (a.u.). Regarding “TTCTTTTTTAGACTAGCCATGTACATAATTCTATCGTCCTCGGAGTCACCTAGTGCAG”, the binding signal is 8210 fluorescence intensity (a.u.). Turning to “CGGCGGCTGTATCGTGATATGTGTTCTTGGAAAAAAAAGACGGAGTCACCTAGTGCAG”, the binding signal was 8860 fluorescence intensity (a.u.). In the case of “CCCCACGGCCCACGCTAGCCCGACCATGCGCCGACCTCACCGGAGTCACCTAGTGCAG”, the binding signal is 8870 fluorescence intensity (a.u.). Regarding “GCCCACCACCGCCATTCGCCACCACCTCGCCTCCGATTCACGGAGTCACCTAGTGCAG”, the binding signal is 12600 fluorescence intensity (a.u.). As for “CCAGGTGATTCGTGTTTCTTTATGTTTTACATATTTCTTGCGGAGTCACCTAGTGCAG”, the binding signal is 8420 fluorescence intensity (a.u.). For “GCCGTTGACTTTTTCTCACATATTTGACCATTCGTCTTATCGGAGTCACCTAGTGCAG”, the binding signal was 45300 fluorescence intensity (a.u.).

In the case of “CGGCCTCCGATGGCGCCCCGGCCATACTGCCCCGTGACCCCGGAGTCACCTAGTGCAG”, the binding signal was 8210 fluorescence intensity (a.u.). For the sequence “ACTTTCTTACGTAAACCTTTTTTAAAAAAACACACCAGTTCGGAGTCACCTAGTGCAG”, the binding signal is 11100 fluorescence intensity (a.u.). Take “GGGTCTCTGTCCAGTCCAGTCCACTTCCGGCCCATTTGCTCGGAGTCACCTAGTGCAG”: the binding signal was 9500 fluorescence intensity (a.u.).
